No constants are given. Whether binding was seen depends on the method and setting. In cells and extracts the contact can be indirect. Binding calls can cover weak binding; strength is not graded here. For some assays here: Where a sequence is shown, tags or fusion partners need not be part of it.
How the values were obtained:
[1] = target: T1, OGT, exogenous (GFP‐OGT or HA‐OGT) (UniProt O15294); assay: co-IP; 293T cells transfected with the indicated plasmids; lysis in 20 mM Tris-HCl, 150 mM NaCl, 1 mM EDTA, 1 mM EGTA, 1% NP-40, 2.5 mM sodium pyrophosphate, 10% glycerol, pH 7.5; beads 4 °C 4 h, five washes, immunoblotting
T1 sequence: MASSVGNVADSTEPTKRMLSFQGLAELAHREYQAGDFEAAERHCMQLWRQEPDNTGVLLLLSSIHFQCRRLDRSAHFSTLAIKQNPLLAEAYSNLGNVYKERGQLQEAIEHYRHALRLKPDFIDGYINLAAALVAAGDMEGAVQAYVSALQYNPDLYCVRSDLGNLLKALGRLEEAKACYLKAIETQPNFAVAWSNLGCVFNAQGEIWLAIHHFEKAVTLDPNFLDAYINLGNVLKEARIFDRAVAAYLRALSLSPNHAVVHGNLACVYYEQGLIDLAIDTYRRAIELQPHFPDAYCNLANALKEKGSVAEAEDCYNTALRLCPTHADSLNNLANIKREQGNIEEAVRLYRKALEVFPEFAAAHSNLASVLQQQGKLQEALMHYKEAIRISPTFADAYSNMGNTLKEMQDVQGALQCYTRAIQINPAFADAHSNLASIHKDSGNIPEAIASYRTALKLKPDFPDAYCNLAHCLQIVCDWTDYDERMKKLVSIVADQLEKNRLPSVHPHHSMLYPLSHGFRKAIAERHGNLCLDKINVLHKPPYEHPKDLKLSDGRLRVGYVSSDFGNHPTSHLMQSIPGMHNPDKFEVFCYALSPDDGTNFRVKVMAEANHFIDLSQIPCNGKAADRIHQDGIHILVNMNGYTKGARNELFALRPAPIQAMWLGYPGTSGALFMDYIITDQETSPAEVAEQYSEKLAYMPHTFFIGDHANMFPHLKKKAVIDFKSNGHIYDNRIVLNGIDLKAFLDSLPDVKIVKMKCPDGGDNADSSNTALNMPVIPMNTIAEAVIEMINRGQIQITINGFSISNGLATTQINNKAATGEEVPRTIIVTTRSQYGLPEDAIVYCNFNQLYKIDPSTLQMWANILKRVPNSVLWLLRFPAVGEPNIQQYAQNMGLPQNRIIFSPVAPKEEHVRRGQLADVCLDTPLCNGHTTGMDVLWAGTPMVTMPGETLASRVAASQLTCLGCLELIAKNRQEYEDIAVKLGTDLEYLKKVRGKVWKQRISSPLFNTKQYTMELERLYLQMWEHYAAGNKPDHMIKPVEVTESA

Sequences of proteins named here, by UniProt entry; tags and fusion partners are left off. A change or cut given only in a name is not applied to a line headed by its entry.
UniProt P23258: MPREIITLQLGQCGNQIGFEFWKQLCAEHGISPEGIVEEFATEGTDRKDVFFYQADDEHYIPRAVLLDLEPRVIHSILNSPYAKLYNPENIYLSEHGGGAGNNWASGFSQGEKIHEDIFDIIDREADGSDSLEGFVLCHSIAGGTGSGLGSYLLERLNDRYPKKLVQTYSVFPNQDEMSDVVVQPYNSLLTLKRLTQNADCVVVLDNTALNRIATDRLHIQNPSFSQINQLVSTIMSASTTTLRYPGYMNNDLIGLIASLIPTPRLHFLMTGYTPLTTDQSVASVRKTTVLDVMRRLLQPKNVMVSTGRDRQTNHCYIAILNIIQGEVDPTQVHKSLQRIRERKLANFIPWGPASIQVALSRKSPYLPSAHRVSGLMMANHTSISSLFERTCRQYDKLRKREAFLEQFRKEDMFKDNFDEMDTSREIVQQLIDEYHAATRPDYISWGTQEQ
UniProt Q9UPN4: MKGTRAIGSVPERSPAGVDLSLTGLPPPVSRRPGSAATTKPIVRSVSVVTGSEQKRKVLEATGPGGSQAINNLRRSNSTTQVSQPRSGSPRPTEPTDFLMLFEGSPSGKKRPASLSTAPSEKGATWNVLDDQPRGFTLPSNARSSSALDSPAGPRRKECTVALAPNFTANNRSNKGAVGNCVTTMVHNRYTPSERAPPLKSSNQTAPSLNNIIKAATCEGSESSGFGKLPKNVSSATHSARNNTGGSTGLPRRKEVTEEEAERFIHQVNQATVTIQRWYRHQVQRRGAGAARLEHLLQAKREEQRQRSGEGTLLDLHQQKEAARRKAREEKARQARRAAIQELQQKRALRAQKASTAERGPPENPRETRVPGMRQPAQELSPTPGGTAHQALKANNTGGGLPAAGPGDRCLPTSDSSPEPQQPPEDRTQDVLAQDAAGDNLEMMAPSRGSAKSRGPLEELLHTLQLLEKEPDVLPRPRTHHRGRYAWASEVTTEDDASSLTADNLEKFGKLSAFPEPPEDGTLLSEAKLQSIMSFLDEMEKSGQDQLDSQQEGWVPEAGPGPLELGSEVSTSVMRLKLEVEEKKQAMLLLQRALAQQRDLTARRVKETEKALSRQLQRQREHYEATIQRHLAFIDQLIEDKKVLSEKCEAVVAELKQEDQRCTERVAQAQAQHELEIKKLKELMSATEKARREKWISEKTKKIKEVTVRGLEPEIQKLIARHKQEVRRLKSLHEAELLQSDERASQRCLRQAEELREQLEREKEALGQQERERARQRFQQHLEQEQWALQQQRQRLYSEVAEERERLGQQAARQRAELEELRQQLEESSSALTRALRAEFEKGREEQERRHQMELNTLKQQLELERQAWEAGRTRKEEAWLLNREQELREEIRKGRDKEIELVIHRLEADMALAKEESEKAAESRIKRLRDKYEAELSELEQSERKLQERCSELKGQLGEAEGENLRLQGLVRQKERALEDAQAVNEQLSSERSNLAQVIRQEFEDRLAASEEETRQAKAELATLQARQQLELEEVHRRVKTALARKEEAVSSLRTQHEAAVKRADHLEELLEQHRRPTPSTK

[2] = target: γ‐tubulin (human (endogenous in MCF10A)) (UniProt P23258); assay: as above

| Substance | binding [1] | binding [2] |
| --- | --- | --- |
| Flag‐∆N truncation of CEP131 (domain or fragment) | binds |  |
| GFP‐CEP131‐mutant (five‐site mutant of CEP131) (from UniProt Q9UPN4) |  | binds |
